In test [1] the target is eIF4E Ser209Ala (nonphosphorylatable knock-in mutant) (mouse (endogenous in dentate gyrus)) (UniProt P63073). Nature of the test: pull-down.
Test [2] concerns the target eukaryotic initiation factor 4E (eIF4E), wild type (mouse (endogenous in dentate gyrus)) (UniProt P63073). In words: pull-down.

By UniProt entry, the sequences of proteins in these tests, tags left out. Where a name states a change or a piece, a line headed by the entry shows the natural chain unless it says otherwise. Chains listed by the source or under a name are the forms on record and can include a tag or linker.
UniProt P63073: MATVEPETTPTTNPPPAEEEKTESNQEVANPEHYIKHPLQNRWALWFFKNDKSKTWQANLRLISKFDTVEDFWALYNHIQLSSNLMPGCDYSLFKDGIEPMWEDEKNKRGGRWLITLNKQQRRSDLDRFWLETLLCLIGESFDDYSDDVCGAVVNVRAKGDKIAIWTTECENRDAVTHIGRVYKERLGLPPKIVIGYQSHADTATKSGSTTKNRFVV
eIF4E Ser209Ala (nonphosphorylatable knock-in mutant) (mouse (endogenous in dentate gyrus)) (P63073, form named): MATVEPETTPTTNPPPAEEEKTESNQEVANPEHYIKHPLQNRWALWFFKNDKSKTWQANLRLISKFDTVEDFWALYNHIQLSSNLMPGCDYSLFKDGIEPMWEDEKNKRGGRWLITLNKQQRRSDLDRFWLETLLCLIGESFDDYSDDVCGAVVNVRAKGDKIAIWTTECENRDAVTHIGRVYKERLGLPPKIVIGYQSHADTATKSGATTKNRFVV
UniProt Q7TMB8: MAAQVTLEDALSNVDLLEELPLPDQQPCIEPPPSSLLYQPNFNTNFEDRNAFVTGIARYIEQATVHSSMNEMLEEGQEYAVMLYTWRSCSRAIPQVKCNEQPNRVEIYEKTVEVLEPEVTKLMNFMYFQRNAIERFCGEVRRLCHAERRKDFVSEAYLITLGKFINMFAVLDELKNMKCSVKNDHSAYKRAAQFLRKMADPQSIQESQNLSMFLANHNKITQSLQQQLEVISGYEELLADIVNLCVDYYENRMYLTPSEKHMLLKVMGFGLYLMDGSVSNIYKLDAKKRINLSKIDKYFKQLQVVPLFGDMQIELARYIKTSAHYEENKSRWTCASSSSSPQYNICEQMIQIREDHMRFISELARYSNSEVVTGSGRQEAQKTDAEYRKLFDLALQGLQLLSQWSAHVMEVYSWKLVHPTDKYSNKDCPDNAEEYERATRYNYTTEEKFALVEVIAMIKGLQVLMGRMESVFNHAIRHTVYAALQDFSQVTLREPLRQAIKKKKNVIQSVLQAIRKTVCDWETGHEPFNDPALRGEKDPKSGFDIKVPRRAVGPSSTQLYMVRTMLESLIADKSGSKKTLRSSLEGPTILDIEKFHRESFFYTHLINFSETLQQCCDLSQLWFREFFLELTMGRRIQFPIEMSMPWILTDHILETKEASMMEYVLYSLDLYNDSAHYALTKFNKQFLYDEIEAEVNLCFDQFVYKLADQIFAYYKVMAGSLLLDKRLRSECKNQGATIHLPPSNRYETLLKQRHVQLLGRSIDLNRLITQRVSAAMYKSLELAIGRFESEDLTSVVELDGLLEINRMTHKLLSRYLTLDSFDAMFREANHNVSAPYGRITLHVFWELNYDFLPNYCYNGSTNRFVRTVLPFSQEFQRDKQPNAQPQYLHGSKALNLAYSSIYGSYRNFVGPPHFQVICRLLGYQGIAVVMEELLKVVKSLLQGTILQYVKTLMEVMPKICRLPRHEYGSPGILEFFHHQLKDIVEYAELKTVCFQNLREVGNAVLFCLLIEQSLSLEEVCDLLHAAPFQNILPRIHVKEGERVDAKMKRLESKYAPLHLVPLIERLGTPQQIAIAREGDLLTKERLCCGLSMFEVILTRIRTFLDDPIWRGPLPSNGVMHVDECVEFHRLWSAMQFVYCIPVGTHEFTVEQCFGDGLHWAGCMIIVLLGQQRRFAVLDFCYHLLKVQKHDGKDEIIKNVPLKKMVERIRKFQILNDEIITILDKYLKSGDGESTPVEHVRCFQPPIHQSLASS

Results are given in words; binding and its absence hold for the method and conditions named. Binding seen in cells or lysates may run through a third protein. Some binding calls cover weakened binding; strength is not graded here.

As for “cytoplasmic FMRP interacting protein-1 (CYFIP1) (from UniProt Q7TMB8 1-1253)”, the binding result in test [1] and in test [2] was “binds” throughout.

B1: eIF4E-binding protein 2 (4E-BP2) (protein, UniProt P70445 1-120)
chain: MSASAGGSHQPSQSRAIPTRTVAISDAAQLPQDYCTTPGGTLFSTTPGGTRIIYDRKFLLDRRNSPMAQTPPCHLPNIPGVTSPGALIEDSKVEVNNLNNLNNHDRKHAVGDEAQFEMDI
As for B1, the binding entry in test [1] and in test [2] was “binds” in each case.

For the origin of these results see doi:10.1101/2022.09.28.509312.
